Results: article PMC4211885 (PLoS ONE, 2014)
Read-outs that look alike come from different tables or passages of the source.

Chains of the proteins cited; added tags and fusions are not shown.
UniProt D9U2B9, entry or part of it: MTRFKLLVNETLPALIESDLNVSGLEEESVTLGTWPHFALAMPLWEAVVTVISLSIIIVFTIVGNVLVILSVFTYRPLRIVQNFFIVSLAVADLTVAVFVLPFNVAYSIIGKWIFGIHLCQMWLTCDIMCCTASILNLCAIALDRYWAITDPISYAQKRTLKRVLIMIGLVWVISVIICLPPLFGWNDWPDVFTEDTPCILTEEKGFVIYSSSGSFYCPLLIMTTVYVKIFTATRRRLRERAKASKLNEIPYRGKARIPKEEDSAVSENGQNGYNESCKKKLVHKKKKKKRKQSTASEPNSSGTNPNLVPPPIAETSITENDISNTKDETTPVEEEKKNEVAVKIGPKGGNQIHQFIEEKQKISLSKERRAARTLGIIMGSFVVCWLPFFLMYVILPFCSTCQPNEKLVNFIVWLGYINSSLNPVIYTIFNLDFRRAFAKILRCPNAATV

Target: OA/TAMac receptor (Macrobrachium rosenbergii, UniProt D9U2B9)
Experiment: Antagonist block of ID evoked by 50 µM octopamine in OA/TAMac-injected oocytes
Type: cell-based
Experimental: Recordings were performed 1–3 days post-injection at room temperature (20–22°C). Currents were recorded under two-electrode voltage clamp using an Axoclamp 900a amplifier (Molecular Devices LLC, CA USA). A digidata 1440a analog to digital converter was used in conjunction with pCLAMP 10 software (Molecular Devices) for data acquisition and to generate voltage commands. For each step protocol or chemical application data were typically sampled at 5 KHz and filtered digitally at 1 KHz. For the duration of each experiment the current was also continuously sampled at 1 kHz using a separate minidigi 1A digitizer (Molecular Devices). Glass microelectrodes were pulled from filamented 1.2 mm thin wall borosilicate glass (World Precision Instruments, Sarasota, FL) using a Sutter Instruments P-97 puller. They were filled with 3 M KCl and had resistances of 0.8–2.0 MΩ. A silver chloride pellet immersed in 3 M KCl and connected to the bath via a 3% agar bridge made with 3 M KCl was used as the reference electrode.
In experiments where more than three drugs or concentrations were tested a precisely controlled 30 s perfusion-switch was used. Up to eight channels were connected to the bath via an 8-way manifold. There was an approximately 6–7 s delay for solutions to traverse the dead volume between the manifold and the bath.

Row | IC50 [µM] | IC50 (antagonist applied as mixture with 50 µM octopamine, 30 second perfusion-switch, −60 mV, estimated graphically, read-out: IC50 for block of octopamine-evoked ID) [µM] | SMILES
1 | ~4.2 |  | O=C(CCCN1CCC(O)(c2ccc(Cl)cc2)CC1)c1ccc(F)cc1 [haloperidol]
2 |  | ~32 | CN1CCN2c3ccccc3Cc3ccccc3C2C1 (centres unmarked) [mianserin]
